Source: patent publication US12582683B2, “Prostate neoantigens and their uses” (Jansen Biotech, Inc., priority 2019, dated 2026)
Entries after “also recorded” stand apart in the source; their conditions may differ. For some of these results: The expression values are mRNA levels of the gene; the protein chain is shown to identify it.

Columns and labels:
[1] = test system: FFPE tissue samples from prostate cancer, normal tissues, PBMCs and cell lines; assay: Expression profiling of prostate neoantigens in tumor and normal tissues (Fluidigm Biomark HD); set-up: species or system human; conditions: panel of normal tissues, qPCR
[2] = Prevalence of neoantigens in RNAseq data of frozen prostate cancer tissues (n = 11); set-up: species or system human; conditions: Table 22, prevalence in 11 frozen prostate cancer tissues

Molecule	Normal Tissue Expression [1]	Frozen prostate cancer tissues* (n = 11) [2]
CEERGAAGSLISCE (listed as Homo sapiens) [FUS6, fusion TMPRSS2->ERG]	None	–
CGASACDVSLIAMDSA (listed as Homo sapiens) [FUS1, fusion SLC45A3->ELK4]	Prostate	–
DGHSYTSKVNCLLLQDGFHGCVSITGAAGRRNLSIFLFLMLCKLEFHAC (listed as Homo sapiens) [AS55, splice variant SPOCK1]	Prostate	18.2
DYWAQKEKGSSSFLRPSC (listed as Homo sapiens) [AS7, splice variant ACSM1]	None	27.3
DYWAQKEKISIPRTHLC (listed as Homo sapiens) [AS6, splice variant ACSM1]	None	27.3
EAFQRAAGEGGPGRGGARRGARVLQSPFCRAGAGEWLGHQSLR (listed as Homo sapiens) [AS41, splice variant RHPN1]	Ovary	0.0
FKKFDGPCGERGGGRTARALWARGDSVLTPALDPQTPVRAPSLTRAAAAV (listed as Homo sapiens) [AS47, splice variant AGRN]	Ovary	0.0
GMECTLGQVGAPSPRREEDGWRGGHSRFKADVPAPQGPCWGGQPGSAPSSAPPEQSLLD (listed as Homo sapiens) [AS51, splice variant CPNE7]	Ovary	9.1
GNTTLQQLGEASQAPSGSLIPLRLPLLWEVRG (listed as Homo sapiens) [AS16, splice variant LRRC45]	Ovary	45.5
HVVGYGHLDTSGSSSSSSWP (listed as Homo sapiens) [FUS15, fusion D2HGDH->GAL3ST2]	None	–
KIQNKNCPD (listed as Homo sapiens) [AS23, splice variant ZNF614]	Ovary, Prostate,; also recorded: Mammary Gland	45.5
KMHFSLKEHPPPPCPP (listed as Homo sapiens) [FUS19, fusion GTF2F1->PSPN]	None	–
KRSFAVTERII (listed as Homo sapiens) [AS13, splice variant GRIN3A]	None	27.3
LVLGVLSGHSGSRL (listed as Homo sapiens) [AS8, splice variant CACNA1D]	None	0.0
NSKMALNSEALSVVSE (listed as Homo sapiens) [FUS5, fusion TMPRSS2->ERG]	None	–
NSKMALNSLNSIDDAQLTRIAPPRSHCCFWEVNAP (listed as Homo sapiens) [Neoantigen P35, TMPRSS2-ERG]	None	–
QWQHYHRSGEAAGTPLWRPTRN (listed as Homo sapiens) [AS19, splice variant NWD1]	Ovary, Prostate	–

Molecule	Normal Tissue Expression [1]	Frozen prostate cancer tissues* (n = 11) [2]
RTALTHNQDFSIYRLCCKRGSLCHASQARSPAFPKPVRPLPAPITRITPQLGGQSDSSQPLLTTGRPQGWQDQALRHTQQASPASCATITIPIHSAALGDHSGDPGPAWDTCPPLPLTTLIPRAPPPYGDSTARSWPSRCGPLG [MS3, neoantigen]	None	9.1
SLYHREKQLIAMDSAI (listed as Homo sapiens) [Neoantigen P22, 5LC45A3-ELK4]	Prostate	–
TEISCCTLSSEENEYLPRPEWQLQ (listed as Homo sapiens) [FUS3, fusion MSMB->NCOA4]	Prostate	–
TEYNQKLQVNQFSESK (listed as Homo sapiens) [FUS2, fusion ARHGEF38->ARHGEF38-IT1]	Mammary Gland	–
TGGKSTCSAPGPQSLPSTPFSTYPQWVILITEL (listed as Homo sapiens) [AS57, splice variant KLK3]	Prostate	36.4
TMPAILKLQKNCLLSL (listed as Homo sapiens) [MS8, neoantigen]	None	18.2
VAMMVPDRQVHYDFGL (listed as Homo sapiens) [AS3, splice variant DNAH8]	None	27.3
VLRFLDLKVRYLHS (listed as Homo sapiens) [AS15, splice variant LRRC45]	Ovary,; also recorded: Mammary Gland	36.4
WKFEMSYTVGGPPPHVHARPRHWKTDR (listed as Homo sapiens) [AS18, splice variant NWD1]	Ovary, Prostate	–
YEAGMTLGGKILFFLFLLLPLSPFSLIF (listed as Homo sapiens) [Neoantigen P87, AR-Intron]	Ovary, Prostate	0.0
CHLFLQPQVGTPPPHTASARAPSGPPHPHESCPAGRRPARAAQTCARRQHGLPGCEEAGTARVPSLHLHLHQAALGAGRGRGWGEACAQVPPSRG (peptide, listed as Homo sapiens, splice variant RECQL4) CHLFLQPQVGTPPPHTASARAPSGPPHPHESCPAGRRPARAAQTCARRQHGLPGCEEAGTARVPSLHLHLHQAALGAGRGRGWGEACAQVPPSRG	None	0.0
VPFRELKNQRTAQGAPGIHHAASPVAANLCDPARHAQHTRIPCGAGQVRAGRGPEAGGGVLQPQRPAPEKPGCPCRRGQPRLHTVKMWRA (peptide, listed as Homo sapiens, splice variant CPNE7) VPFRELKNQRTAQGAPGIHHAASPVAANLCDPARHAQHTRIPCGAGQVRAGRGPEAGGGVLQPQRPAPEKPGCPCRRGQPRLHTVKMWRA	None	9.1
YAYKDFLWCFPFSLVFLQEIQICCHVSCLCCICCSTRICLGCLLELFLSRALRALHVLWNGFQLHCQ (peptide, listed as Homo sapiens, neoantigen) YAYKDFLWCFPFSLVFLQEIQICCHVSCLCCICCSTRICLGCLLELFLSRALRALHVLWNGFQLHCQ	None	9.1
HYKLIQQPISLFSITDRLHKTFSQLPSVHLCSITFQWGHPPIFCSTNDICVTANFCISVTFLKPCFLLHEASASQ (peptide, listed as Homo sapiens, neoantigen) HYKLIQQPISLFSITDRLHKTFSQLPSVHLCSITFQWGHPPIFCSTNDICVTANFCISVTFLKPCFLLHEASASQ	None	18.2
LWFQSSELSPTGAPWPSRRPTWRGTTVSPRTATSSARTCCGTKWPSSQEAALGLGSGLLRFSCGTAAIR (peptide, listed as Homo sapiens, fusion NME4->DECR2) LWFQSSELSPTGAPWPSRRPTWRGTTVSPRTATSSARTCCGTKWPSSQEAALGLGSGLLRFSCGTAAIR	None	–
VPFRELKNVSVLEGLRQGRLGGPCSCHCPRPSQARLTPVDVAGPFLCLGDPGLFPPVKSSI (peptide, listed as Homo sapiens, splice variant CPNE7) VPFRELKNVSVLEGLRQGRLGGPCSCHCPRPSQARLTPVDVAGPFLCLGDPGLFPPVKSSI	Mammary Gland	0.0
WGMELAASRRFSWDHHSAGGPPRVPSVRSGAAQVQPKDPLPLRTLAGCLARTAHLRPGAESLPQPQLHCT (peptide, listed as Homo sapiens, fusion INCA1->CAMTA2) WGMELAASRRFSWDHHSAGGPPRVPSVRSGAAQVQPKDPLPLRTLAGCLARTAHLRPGAESLPQPQLHCT	None	–
